Reference: paper PMC2808209
Results are given in words; binding and its absence hold for the method and conditions named. Binding seen in cells or lysates may run through a third protein. Some results given as binding are weak or reduced against the parent protein; the word gives no strength. Where a sequence is shown, tags or fusion partners need not be part of it.

Tests used:
GFP-GRASP-1 (rat) = molecular target: T1, GFP-GRASP-1 (rat) (UniProt Q9JHZ4); assay: co-IP; COS-7 cells cotransfected with a GFP-tagged and a myc-tagged construct; rabbit GFP antibody coated beads, 2 h at 4°C; 20 mM Hepes pH 7.4, 200 mM NaCl, 1% NP-40; anti-myc blot
T1 sequence: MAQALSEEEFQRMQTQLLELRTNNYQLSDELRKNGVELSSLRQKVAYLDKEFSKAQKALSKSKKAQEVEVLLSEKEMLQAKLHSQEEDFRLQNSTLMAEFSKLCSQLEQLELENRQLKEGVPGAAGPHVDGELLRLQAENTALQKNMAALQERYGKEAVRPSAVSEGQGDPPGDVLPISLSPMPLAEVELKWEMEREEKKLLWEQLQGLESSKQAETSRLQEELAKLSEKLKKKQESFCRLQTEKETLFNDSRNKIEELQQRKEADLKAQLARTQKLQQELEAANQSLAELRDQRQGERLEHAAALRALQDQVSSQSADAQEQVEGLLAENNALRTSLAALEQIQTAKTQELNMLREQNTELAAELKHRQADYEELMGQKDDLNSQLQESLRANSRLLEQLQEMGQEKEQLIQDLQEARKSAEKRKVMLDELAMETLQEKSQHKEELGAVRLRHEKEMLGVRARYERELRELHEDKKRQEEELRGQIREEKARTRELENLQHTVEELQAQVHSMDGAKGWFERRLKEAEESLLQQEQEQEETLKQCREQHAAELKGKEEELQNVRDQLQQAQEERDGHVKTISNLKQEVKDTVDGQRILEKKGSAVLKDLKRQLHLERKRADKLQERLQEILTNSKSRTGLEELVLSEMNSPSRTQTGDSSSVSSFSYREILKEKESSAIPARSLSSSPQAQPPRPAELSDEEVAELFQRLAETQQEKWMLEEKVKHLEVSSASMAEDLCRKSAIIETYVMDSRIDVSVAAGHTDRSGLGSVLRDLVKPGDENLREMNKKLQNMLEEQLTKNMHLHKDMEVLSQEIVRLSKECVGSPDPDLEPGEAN

GFP-syntaxin 13 = molecular target: T2, GFP-syntaxin 13 (UniProt G3V7P1); assay: as above
T2 sequence: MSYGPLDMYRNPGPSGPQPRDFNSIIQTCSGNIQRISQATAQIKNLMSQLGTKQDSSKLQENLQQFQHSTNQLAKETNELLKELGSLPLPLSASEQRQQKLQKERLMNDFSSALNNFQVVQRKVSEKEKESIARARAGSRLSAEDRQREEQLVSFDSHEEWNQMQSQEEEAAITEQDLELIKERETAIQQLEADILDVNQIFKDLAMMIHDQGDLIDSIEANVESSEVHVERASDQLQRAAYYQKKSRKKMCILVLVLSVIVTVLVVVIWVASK

Binder	binding (GFP-GRASP-1 (rat))	binding (GFP-syntaxin 13)
myc-syntaxin 13 (protein, UniProt G3V7P1 1-274) MSYGPLDMYRNPGPSGPQPRDFNSIIQTCSGNIQRISQATAQIKNLMSQLGTKQDSSKLQENLQQFQHSTNQLAKETNELLKELGSLPLPLSASEQRQQKLQKERLMNDFSSALNNFQVVQRKVSEKEKESIARARAGSRLSAEDRQREEQLVSFDSHEEWNQMQSQEEEAAITEQDLELIKERETAIQQLEADILDVNQIFKDLAMMIHDQGDLIDSIEANVESSEVHVERASDQLQRAAYYQKKSRKKMCILVLVLSVIVTVLVVVIWVASK	binds	
myc-GRASP-1, full length (1-837) (protein, UniProt Q9JHZ4-1 1-837) MAQALSEEEFQRMQTQLLELRTNNYQLSDELRKNGVELSSLRQKVAYLDKEFSKAQKALSKSKKAQEVEVLLSEKEMLQAKLHSQEEDFRLQNSTLMAEFSKLCSQLEQLELENRQLKEGVPGAAGPHVDGELLRLQAENTALQKNMAALQERYGKEAVRPSAVSEGQGDPPGDVLPISLSPMPLAEVELKWEMEREEKKLLWEQLQGLESSKQAETSRLQEELAKLSEKLKKKQESFCRLQTEKETLFNDSRNKIEELQQRKEADLKAQLARTQKLQQELEAANQSLAELRDQRQGERLEHAAALRALQDQVSSQSADAQEQVEGLLAENNALRTSLAALEQIQTAKTQELNMLREQNTELAAELKHRQADYEELMGQKDDLNSQLQESLRANSRLLEQLQEMGQEKEQLIQDLQEARKSAEKRKVMLDELAMETLQEKSQHKEELGAVRLRHEKEMLGVRARYERELRELHEDKKRQEEELRGQIREEKARTRELENLQHTVEELQAQVHSMDGAKGWFERRLKEAEESLLQQEQEQEETLKQCREQHAAELKGKEEELQNVRDQLQQAQEERDGHVKTISNLKQEVKDTVDGQRILEKKGSAVLKDLKRQLHLERKRADKLQERLQEILTNSKSRTGLEELVLSEMNSPSRTQTGDSSSVSSFSYREILKEKESSAIPARSLSSSPQAQPPRPAELSDEEVAELFQRLAETQQEKWMLEEKVKHLEVSSASMAEDLCRKSAIIETYVMDSRIDVSVAAGHTDRSGLGSVLRDLVKPGDENLREMNKKLQNMLEEQLTKNMHLHKDMEVLSQEIVRLSKECVGSPDPDLEPGEAN		binds
myc-GRASP-1(695–837) (domain or fragment, UniProt Q9JHZ4-1 695-837) RPAELSDEEVAELFQRLAETQQEKWMLEEKVKHLEVSSASMAEDLCRKSAIIETYVMDSRIDVSVAAGHTDRSGLGSVLRDLVKPGDENLREMNKKLQNMLEEQLTKNMHLHKDMEVLSQEIVRLSKECVGSPDPDLEPGEAN		binds
